# Assay results reported in US12409181B2, “Treatment for aortic aneurysms” (THE REGENTS OF THE UNIVERSITY OF CALIFORNIA, priority 2019, dated 2025).
# At least one structure is not confirmed: it was looked up by name or label, or the drawing left a doubt.
# System: aortic rings
# Test: Arterial ring isometric tension measurements
# Design: species or system mice
# Settings: Prkg1^RQ/+ versus wild type aortas, rings pre-contracted with PGF2α
# Procedure: Arterial Ring Isometric Tension Measurements. Isometric tension in aortas was measured as previously described,^64 with minor modifications. Thoracic aortas were dissected in Krebs-Henseleit solution, cleaned of any adherent connective tissue, and cut into 1.5-2 mm segments. Rings with intact endothelium were mounted in a wire myograph over 40 μm wires, set at a resting tension of 0.5 g, and allowed to equilibrate at 37° C. for 45 min with intermittent washes every 15 min. After equilibration, aortas were treated with 40 mM K^+-solution. For vascular relaxation by acetylcholine (Sigma) or 8-(4-chlorophenylthio)cGMP (8-CPT-cGMP, BioLog), each aortic ring was pre-contracted to generate ˜0.15 g contraction by treatment with prostaglandin-F2α (PGF2α 2-8 μM, Thermo-Fisher). The degree of relaxation was calculated as a percent of PGF2α-induced contraction.
smiles,measurement,value
CC(=O)OCC[N+](C)(C)C [acetylcholine],relaxation of pre-contracted aortic rings in response to the agent,reduced in the mutant mice compared to wild type mice
